# Literature values in patent US6027748A, “Pharmaceutical tablet, completely coated, for controlled release of active principles that present problems of bio-availability linked to gastro-intestinal absorption” (Jagotec AG, priority 1997, dated 2000).
# Conditions: food in stomach and first portion of small intestine
structure (smiles),measurement,value
COC(=O)C1=C(C)NC(C)=C(C(=O)OC)C1c1ccccc1[N+](=O)[O-] [nifedipine],effect of presence of food on absorption,dramatically affected by the presence of food
